No constants are given. Whether binding was seen depends on the method and setting. Binding seen in cells or lysates may run through a third protein. Some entries that bind do so weakly or less than the wild type.
Molecular target: Growth arrest-specific protein 2 (GAS2), endogenous in Jurkat cells (human (endogenous in Jurkat)) (UniProt O43903)
Test: co-IP; endogenous proteins of Jurkat cells; 500 ug lysate with anti-GAS2 or anti-CXCR4 antibody or isotype control, protein G Plus-Agarose, immunoblot

Amino acid sequences for entries named in this document (tags omitted).
UniProt O43903: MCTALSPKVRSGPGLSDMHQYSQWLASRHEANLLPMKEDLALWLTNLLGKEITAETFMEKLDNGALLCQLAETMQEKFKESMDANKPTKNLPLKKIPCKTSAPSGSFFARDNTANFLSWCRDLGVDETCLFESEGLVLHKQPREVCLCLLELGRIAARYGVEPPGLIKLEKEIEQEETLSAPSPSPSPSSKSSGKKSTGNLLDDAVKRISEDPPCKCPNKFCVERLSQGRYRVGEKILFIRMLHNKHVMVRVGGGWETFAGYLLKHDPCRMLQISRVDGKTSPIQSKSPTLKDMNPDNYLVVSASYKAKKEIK
UniProt P61073: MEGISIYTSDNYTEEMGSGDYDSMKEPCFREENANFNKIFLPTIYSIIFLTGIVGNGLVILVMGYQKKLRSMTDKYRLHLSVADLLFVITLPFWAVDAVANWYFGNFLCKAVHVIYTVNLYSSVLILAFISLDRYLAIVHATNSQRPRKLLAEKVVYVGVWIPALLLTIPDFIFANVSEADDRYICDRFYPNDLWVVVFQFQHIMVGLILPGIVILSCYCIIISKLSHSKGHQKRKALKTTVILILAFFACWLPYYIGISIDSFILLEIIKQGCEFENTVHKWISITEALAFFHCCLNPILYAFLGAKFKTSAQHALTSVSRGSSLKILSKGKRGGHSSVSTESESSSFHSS

C-X-C chemokine receptor type 4 (CXCR4), endogenous in Jurkat cells (from UniProt P61073 1-352)
binding: binds

— publication PMC9580887
